Experiment [1] has as its target T1, GFP-CARM1FL (human) (UniProt Q86X55).
T1 sequence: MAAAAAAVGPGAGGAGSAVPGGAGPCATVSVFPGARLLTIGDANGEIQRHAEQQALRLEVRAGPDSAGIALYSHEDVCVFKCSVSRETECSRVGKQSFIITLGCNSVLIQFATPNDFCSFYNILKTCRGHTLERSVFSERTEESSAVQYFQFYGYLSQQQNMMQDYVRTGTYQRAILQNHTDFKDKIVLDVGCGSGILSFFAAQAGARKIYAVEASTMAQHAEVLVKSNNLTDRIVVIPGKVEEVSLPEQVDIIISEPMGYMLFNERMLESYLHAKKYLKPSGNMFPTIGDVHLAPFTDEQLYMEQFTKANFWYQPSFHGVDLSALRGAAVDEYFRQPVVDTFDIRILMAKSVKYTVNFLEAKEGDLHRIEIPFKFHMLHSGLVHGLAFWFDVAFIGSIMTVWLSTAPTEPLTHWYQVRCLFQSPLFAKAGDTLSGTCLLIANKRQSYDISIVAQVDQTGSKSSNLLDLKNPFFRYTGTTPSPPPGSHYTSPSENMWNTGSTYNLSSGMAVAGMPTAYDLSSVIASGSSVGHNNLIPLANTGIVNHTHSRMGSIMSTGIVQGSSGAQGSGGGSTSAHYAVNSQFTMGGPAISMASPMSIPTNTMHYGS
The experiment in a line: co-IP; GFP, GFP-CARM1FL or GFP-CARM1ΔE15 transiently transfected for 24 h; GFP fusion immunoprecipitated with GFP antibody; endogenous CARM1 in the immunoprecipitates detected by western blot with E16 Ab. In general terms: In western blotting, separated proteins are transferred to a membrane and probed.

The target of experiment [2] is T1, GFP-CARM1FL (human). The experiment in a line: co-IP; exogenous GFP-CARM1FL co-transfected with Flag-CARM1FL or Flag-CARM1ΔE15 into HEK293 cells (Supplementary Figure S1); which partner was precipitated is not told.

These are yes or no findings as the source states them, for the method shown. Binding seen in cells or lysates may run through a third protein. A result given as binding can be weak or reduced; the word gives no strength. Sequences can lack the tags named with a protein.

Regarding “endogenous CARM1ΔE15 (human (endogenous in HEK293))”, the binding result with GFP-CARM1FL (human) [1] was “binds”.

Take Flag-CARM1ΔE15 (human): the binding entry with GFP-CARM1FL (human) [2] is recorded as “binds”.

Source of the values: article PMC3737532.
